Reference: the supplement of paper PMC9233669
Variants at the background level are over-represented here.

Assays:
[1] = test system: biotinyl-Trp-oxazolone; assay: self-aminoacylation, catalytic enhancement (BWO) (fold over background); higher = more active; k-Seq, kA / k0A0; sequences stand for … in GGGAAUGGAUCCACAUCUACGAAUUC…UUCACUGCAGACUUGACGAAGCUG
Procedure, shortened: (§1)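 Mutagenized RNA pools with a 21-nt variable region (0.43 μM) reacted with each biotinyl-aminoacyl-oxazolone at 2–1250 μM. Reactions ran in 50 μL HEPES/NaCl/KCl/MgCl2/CaCl2 buffer with 5% acetonitrile, pH 6.9–7.0, for 90 minutes at room temperature. Streptavidin-captured RNA was quantified by triplicate qPCR and Illumina sequencing, and per-sequence fraction reacted was fit to a pseudo-first-order model with 1000 bootstraps. Catalytic enhancement is median kA divided by the uncatalyzed rate, the low-activity peak of a bimodal Gaussian fit.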

[2] = test system: biotinyl-Leu-oxazolone; assay: self-aminoacylation, catalytic enhancement (BLO) (fold over background); higher = more active; k-Seq, kA / k0A0; sequences stand for … in GGGAAUGGAUCCACAUCUACGAAUUC…UUCACUGCAGACUUGACGAAGCUG
Procedure, shortened: as §1

[3] = test system: biotinyl-Met-oxazolone; assay: self-aminoacylation, catalytic enhancement (BMO) (fold over background); higher = more active; k-Seq, kA / k0A0; sequences stand for … in GGGAAUGGAUCCACAUCUACGAAUUC…UUCACUGCAGACUUGACGAAGCUG
Procedure, shortened: as §1

[4] = test system: biotinyl-Val-oxazolone; assay: self-aminoacylation, catalytic enhancement (BVO) (fold over background); higher = more active; k-Seq, kA / k0A0; sequences stand for … in GGGAAUGGAUCCACAUCUACGAAUUC…UUCACUGCAGACUUGACGAAGCUG
Procedure, shortened: as §1

[5] = test system: biotinyl-Ile-oxazolone; assay: self-aminoacylation, catalytic enhancement (BIO) (fold over background); higher = more active; k-Seq, kA / k0A0; sequences stand for … in GGGAAUGGAUCCACAUCUACGAAUUC…UUCACUGCAGACUUGACGAAGCUG
Procedure, shortened: as §1

[6] = test system: biotinyl-Phe-oxazolone; assay: self-aminoacylation, catalytic enhancement (BFO) (fold over background); higher = more active; k-Seq, kA / k0A0; sequences stand for … in GGGAAUGGAUCCACAUCUACGAAUUC…UUCACUGCAGACUUGACGAAGCUG
Procedure, shortened: as §1

Sequence	self-aminoacylation [1]	self-aminoacylation [2]	self-aminoacylation [3]	self-aminoacylation [4]	self-aminoacylation [5]	self-aminoacylation [6]
CUACUUCAAAGAAUCGGUAUG [Fam1A.1 aminoacylation ribozyme variant]	1.28	0.923	0.68	0.753	0.793	1.93
AUUCACCCAUGUCAUCGGGUG [Fam2.2 aminoacylation ribozyme variant]	5.22	7.33	6.58	3.15	3.72	46.4
CUACUUCAAACACUCGAUCUG [Fam1A.1 aminoacylation ribozyme variant]	0.404	0.52	0.539	0.763	0.716	0.695
CUACUUUAAACAAUUGGUCUG [Fam1A.1 aminoacylation ribozyme variant]	0.926	0.919	0.961	0.963	0.984	0.795
CUACUUCGAACAACCGGUCUG [Fam1A.1 aminoacylation ribozyme variant]	0.949	0.836	0.734	1.21	0.822	0.394
AAGUCUGAUAAUAGUCGCAAG [Fam3.1 aminoacylation ribozyme variant]	0.95	0.984	0.84	0.936	0.778	1.08
AAGUUUGCUAAUAGUUGAAAG [Fam3.1 aminoacylation ribozyme variant]	1.35	1.15	1.31	1.14	1.35	1.58
CUACACUUCAAGCAAUUGGUC [Fam1B.1 aminoacylation ribozyme variant]	0.63	0.449	0.454	0.593	0.572	1.15
AAGUUUGUUAAUAGUUGCAAG [Fam3.1 aminoacylation ribozyme variant]	0.978	0.996	1.06	0.995	1.05	1.44
CCACGCUUCAAGCAAGCGGUC [Fam1B.1 aminoacylation ribozyme variant]	0.5	0.546	0.691	0.921	0.777	0.534
AAGUUUGCUAAGAGUCGCUAG [Fam3.1 aminoacylation ribozyme variant]	1.15	0.63	0.945	0.71	0.873	0.816
CUACUUCACCCAAUCGGUCUG [Fam1A.1 aminoacylation ribozyme variant]	0.793	0.704	0.67	0.88	0.917	0.575
AAGUUUGCUAAUAGUUGCAAC [Fam3.1 aminoacylation ribozyme variant]	0.841	0.853	0.933	0.83	1.06	0.862
CUACUUCAACCAAUGGGUCUG [Fam1A.1 aminoacylation ribozyme variant]	0.67	0.968	0.933	1.02	1.02	1.05
AUUCACCGAGAUCAUCGGGUG [Fam2.2 aminoacylation ribozyme variant]	7.09	8.53	6.77	4.27	3.88	49.8
AUUCACCUAGGUGAUCAGGUG [Fam2.2 aminoacylation ribozyme variant]	1.92	1.63	1.72	1.43	1.52	1.46
CUUCACCUAGGUCAUCGGUUG [Fam2.2 aminoacylation ribozyme variant]	1.3	1.47	1.11	1.52	1.27	0.801
CUACUUCAAACAAUGGGUCGG [Fam1A.1 aminoacylation ribozyme variant]	0.513	0.878	0.793	0.729	0.828	0.587
AAGUUUGCUACUAGUCGCAAA [Fam3.1 aminoacylation ribozyme variant]	1.18	0.969	1.19	1.28	1.21	1.53
CCUCACGUCAAGCAAUCGGUC [Fam1B.1 aminoacylation ribozyme variant]	1.04	1.06	1.05	1.65	1.13	1.81
CUACUUCAAACAAACGGCCUG [Fam1A.1 aminoacylation ribozyme variant]	0.967	1.18	1.01	1.13	1.38	0.719
AAGUUAGCUAAUAGUCGCCAG [Fam3.1 aminoacylation ribozyme variant]	3.82	1.67	2.09	1.33	1.91	1.48
AUUCACCUAGGUGAUCGUGUG [Fam2.2 aminoacylation ribozyme variant]	0.927	1.17	0.855	0.819	0.783	0.374
AAGUUUGCUAAAAGUCGAAAG [Fam3.1 aminoacylation ribozyme variant]	2.17	0.673	0.85	1.05	0.975	4.76
AAGUUUGCUAAUUGUCGAAAG [Fam3.1 aminoacylation ribozyme variant]	0.907	1.05	0.93	0.872	0.872	1.08
CUAAGUCAAACAAUCGGUCUG [Fam1A.1 aminoacylation ribozyme variant]	0.887	0.87	0.885	0.784	0.854	1.08

Sequence	self-aminoacylation [1]	self-aminoacylation [2]	self-aminoacylation [3]	self-aminoacylation [4]	self-aminoacylation [5]	self-aminoacylation [6]
AUUCACCUAGGUGAACGGGUG [Fam2.2 aminoacylation ribozyme variant]	0.755	1.12	0.999	1.09	0.817	0.319
AUUCACCUAGGUCAUCAGGUC [Fam2.2 aminoacylation ribozyme variant]	0.493	0.504	0.469	0.602	0.589	0.477
AUUGACCUAGGUCAUCAGGUG [Fam2.2 aminoacylation ribozyme variant]	1.25	1.33	1.56	1.4	1.37	1.64
CCACACUUGAUGCAAUCGGUC [Fam1B.1 aminoacylation ribozyme variant]	0.818	0.782	0.891	1.01	0.823	0.817
UCACACUUCAAGCAAUUGGUC [Fam1B.1 aminoacylation ribozyme variant]	0.841	0.734	0.597	0.788	0.682	1.32
CUUCACCUAGUUCAUCGGGUG [Fam2.2 aminoacylation ribozyme variant]	2.53	2.87	2.54	2.27	2.15	1.99
AAGUUUGCUCAUAGUCGCAAU [Fam3.1 aminoacylation ribozyme variant]	1.41	1.33	1.52	1.15	1.53	1.78
AUUACCCUCGUCAUCGAGUGU [Fam2.1 aminoacylation ribozyme variant]	1.49	2	1.88	1.4	1.34	1.56
CCACACUACGAGCAAUCGGUC [Fam1B.1 aminoacylation ribozyme variant]	0.666	1.17	0.892	1.16	1.01	0.95
CUACUACAAGCAAUCGGUCUG [Fam1A.1 aminoacylation ribozyme variant]	0.633	0.926	0.605	0.715	0.742	0.604
CCACACUUCAAGCGAUCGUUC [Fam1B.1 aminoacylation ribozyme variant]	0.52	0.623	0.716	0.792	0.877	0.802
ACUACCCUGUUCAUCGAGUGA [Fam2.1 aminoacylation ribozyme variant]	5.04	3.27	3.17	2.33	2.28	6.68
AUUACCCUGGUCAUUUAGUGA [Fam2.1 aminoacylation ribozyme variant]	14.4	11.1	11.7	5.82	5.57	70
AUUCACCUAGCUCCUCGGGUG [Fam2.2 aminoacylation ribozyme variant]	1.35	2.24	1.52	1.27	1.13	5.19
CCACACUCCAAGCAAUCCGUC [Fam1B.1 aminoacylation ribozyme variant]	1.51	0.843	1.13	1.34	1.63	1.39
CCACACUUCAAGAAAACGGUC [Fam1B.1 aminoacylation ribozyme variant]	0.32	0.531	0.647	0.671	0.572	0.665
AAGUUUGCUCAUAGUCGCAAC [Fam3.1 aminoacylation ribozyme variant]	1.19	1.47	1.11	1	1.06	1.08
UAGUUUGCUAAUAGUCGCAAA [Fam3.1 aminoacylation ribozyme variant]	2.06	1.53	1.75	1.38	1.95	1.58
AUUACCCUGCUCAUCGAGUUA [Fam2.1 aminoacylation ribozyme variant]	0.544	0.715	0.674	0.798	0.729	0.68
CUACUUCAAACAAUCUGUCAG [Fam1A.1 aminoacylation ribozyme variant]	0.418	0.544	0.554	0.683	0.652	0.601
CCACGCUUCAAGCACUCGGUC [Fam1B.1 aminoacylation ribozyme variant]	0.81	0.819	0.938	1.29	0.855	0.769
AAGUUUGCCAAUAGUCGCAAG [Fam3.1 aminoacylation ribozyme variant]	1.27	1.01	1.06	1.05	1.11	1.78
AUUAGCCUCGUCAUCGAGUGA [Fam2.1 aminoacylation ribozyme variant]	1.3	1.61	1.38	1.32	1.53	2.19
CCACACUUCAAGCGAUCGGUC [Fam1B.1 aminoacylation ribozyme variant]	1.51	0.815	0.743	1.02	0.887	1.72
CUUCUUCAAACCAUCGGUCUG [Fam1A.1 aminoacylation ribozyme variant]	0.509	0.722	0.682	0.775	0.856	0.739
